No constants are given. Whether binding was seen depends on the method and setting. Some entries that bind do so weakly or less than the wild type. Values belong to the binder of their own block, whether it stands above or below them.
Biological target: T1, EGFRvIII (deletion mutant EGFR) (human, UniProt P00533 25-645, limits assumed)
T1 construct: also called deltaEGFR; rhEGFRvIII
Assay: EGFRvIII ELISA (Example 1)

- binding: binds
B3: antibody 1030 (antibody, human IgG1, kappa, V domains shown)
VH: EVQLVESGGGLVKPGGSLKLSCAASGFTFSSYALSWVRQTPERRLEWVASISGVGSTYFPDSVKGRFTMSRDNARNILYLQMSSLRSEDTAMYYCARGSDGYFYAMDYWGQGTSVTVSS
VL: DIVLTQSPASLAVSLGQRATISCRASKSVSTSGYSFMHWYQLKPGQPPKLLIYLASNLESGVPARFSGSGSGTDFTLNIHPVEEEDAATYYCQHSREFPLTFGGGTKLEIKR
notes: Chimeric IgG1 kappa

- binding: binds
B5: antibody 1254 (antibody, human IgG1, kappa, V domains shown)
VH: EVQLVESGGGLVKPGGSLKLSCAASGFAYSTYDMSWVRQTPEKRLEWVAYISSGGDAAYYPDTVKGRFTISRDNAKNTLYLQMSSLKSEDTAMYYCARSRYGNYGDAMDYWGQGTSVTVSS
VL: DVVMTQTPLSLPVSLGDQASISCRSSQSLVHSNGNTYLHWYLQKPGQSPKLLLYKVSNRFSGVPDRFSGSGSGTDFTLKISRVESEDLGVYFCSQNTHVYTFGGGTKLEIKR
notes: Chimeric IgG1 kappa; also called mAb 1254

Further lines, the binder ahead of its results:

B1: antibody 1024 (antibody, human IgG1, kappa, V domains shown)
VH: QVQLQQPGAELVEPGGSVKLSCKASGYTFTSHWMHWVKQRPGQGLEWIGEINPSSGRNNYNEKFKSKATLTVDKSSSTAYMQFSSLTSEDSAVYYCVRYYGYDEAMDYWGQGTSVTVSS
VL: DIVMTQAAFSNPVTLGTSASISCRSSKSLLHSNGITYLYWYLQKPGQSPQLLIYQMSNLASGVPDRFSSSGSGTDFTLRISRVEAEDVGVYYCAQNLELPYTFGGGTKLEIKR
notes: Chimeric IgG1 kappa
- binding: binds

B2: antibody 992 (antibody, human IgG1, kappa, V domains shown)
VH: EVQLQQPGSELVRPGASVKLSCKASGYTFTSYWMHWVKQRPGQGLEWIGNIYPGSRSTNYDEKFKSKATLTVDTSSSTAYMQLSSLTSEDSAVYYCTRNGDYYVSSGDAMDYWGQGTSVTVSS
VL: DIQMTQTTSSLSASLGDRVTISCRTSQDIGNYLNWYQQKPDGTVKLLIYYTSRLHSGVPSRFSGSGSGTDFSLTINNVEQEDVATYFCQHYNTVPPTFGGGTKLEIKR
notes: Chimeric mouse/human IgG1 kappa; the VL entry includes the human kappa constant region
- binding: binds

B4: antibody 1229 (antibody, human IgG1, kappa, V domains shown)
VH: QVQLKESGPGLVAPSQSLSITCSVSGFSLTIYGVHWVRQPPGKGLEWLGVMWAGGNTDYNSALMSRLNISKDNSKSQVFLKVNSLQTDDTAMYYCTRDPDGYYVGWFFDVWGAGTTVTVSS
VL: DIVMTQSHKFMSTSVGDRVSITCKASQDVTNAVAWYQQKPGQSPKLLIYWASIRHTGVPDRFTGSRSGTDYTLTINSVQAEDLALYYCQQHYNTPLTFGAGTKLEIKR
notes: Chimeric IgG1 kappa
- binding: binds

Reference: patent US20110135636A1 (SYMPHOGEN A S, published 2011)
